# These are yes or no findings as the source states them, for the method shown. Binding can be weak; no strength is given. Sequences can lack the tags named with a protein.
# Biological target: Le4759-FLAG (Lysobacter enzymogenes OH11)
# Assay: pull-down; in vitro pull-down; 5 uM His-tagged protein and FLAG-tagged protein in 1.5 mL PBS, magnetic beads overnight at 4°C (anti-His beads in the methods, anti-FLAG antibody in the legend), washed with PBS with 1% Triton X-100; Western blot with anti-FLAG and anti-His; both purified
binder,measurement,value
"CarI-His (enzyme, UniProt P33880 1-216) MLEIFDVNHTLLSETKSGELFTLRKETFKDRLNWAVQCTDGMEFDQYDNNNTTYLFGIKDNTVICSLRFIETKYPNMITGTFFPYFKEINIPEGNYLESSRFFVDKSRAKDILGNEYPISSMLFLSMINYSKDKGYDGIYTIVSHPMLTILKRSGWGIRVVEQGLSEKEERVYLVFLPVDDENQEALARRINRSGTFMSNELKQWPLRVPAAIAQA",binding,binds

# Source: article PMC9927378
